Screening data, single-dose tests

The chains behind the UniProt entries cited, without tags or fusion partners. Residues count along the entry.
UniProt P9WFT3, whole entry: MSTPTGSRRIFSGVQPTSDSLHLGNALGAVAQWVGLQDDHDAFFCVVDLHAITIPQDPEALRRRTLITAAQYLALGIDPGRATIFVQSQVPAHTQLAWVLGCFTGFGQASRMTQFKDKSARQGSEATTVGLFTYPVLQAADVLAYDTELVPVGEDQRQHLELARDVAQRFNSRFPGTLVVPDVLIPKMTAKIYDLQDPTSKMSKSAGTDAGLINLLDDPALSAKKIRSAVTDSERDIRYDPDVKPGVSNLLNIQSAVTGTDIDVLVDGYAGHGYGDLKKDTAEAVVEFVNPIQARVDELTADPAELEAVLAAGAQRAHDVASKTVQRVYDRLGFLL
UniProt Q4DA54, 1-478: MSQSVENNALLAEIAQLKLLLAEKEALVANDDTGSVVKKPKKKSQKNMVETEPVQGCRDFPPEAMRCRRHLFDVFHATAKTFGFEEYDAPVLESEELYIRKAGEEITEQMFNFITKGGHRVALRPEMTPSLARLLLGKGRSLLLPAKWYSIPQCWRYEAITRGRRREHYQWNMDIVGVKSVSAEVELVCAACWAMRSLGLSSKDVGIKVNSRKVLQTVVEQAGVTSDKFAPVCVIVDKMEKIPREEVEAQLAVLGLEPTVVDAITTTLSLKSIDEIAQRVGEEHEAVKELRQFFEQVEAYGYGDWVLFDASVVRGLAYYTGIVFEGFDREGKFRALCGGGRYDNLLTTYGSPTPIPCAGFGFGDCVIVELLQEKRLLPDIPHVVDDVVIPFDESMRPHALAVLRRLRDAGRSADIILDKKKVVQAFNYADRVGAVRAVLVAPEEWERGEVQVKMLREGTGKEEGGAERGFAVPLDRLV
UniProt Q8IDJ8, 1-583: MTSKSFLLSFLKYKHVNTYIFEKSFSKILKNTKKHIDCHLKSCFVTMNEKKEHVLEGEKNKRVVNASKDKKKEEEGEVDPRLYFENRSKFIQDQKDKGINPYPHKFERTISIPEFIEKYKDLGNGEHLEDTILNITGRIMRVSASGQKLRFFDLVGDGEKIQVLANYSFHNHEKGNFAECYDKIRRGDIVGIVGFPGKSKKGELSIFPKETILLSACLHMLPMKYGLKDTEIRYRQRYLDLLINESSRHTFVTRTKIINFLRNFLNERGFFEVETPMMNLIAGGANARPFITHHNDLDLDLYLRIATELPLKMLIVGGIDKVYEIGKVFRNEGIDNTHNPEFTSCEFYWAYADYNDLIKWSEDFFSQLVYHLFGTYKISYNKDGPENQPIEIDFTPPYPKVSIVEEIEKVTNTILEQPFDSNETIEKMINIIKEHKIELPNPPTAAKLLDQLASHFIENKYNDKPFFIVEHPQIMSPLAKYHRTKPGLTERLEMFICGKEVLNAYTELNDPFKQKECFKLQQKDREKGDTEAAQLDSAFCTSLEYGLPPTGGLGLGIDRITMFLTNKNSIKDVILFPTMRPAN
UniProt P9WNZ1, whole entry: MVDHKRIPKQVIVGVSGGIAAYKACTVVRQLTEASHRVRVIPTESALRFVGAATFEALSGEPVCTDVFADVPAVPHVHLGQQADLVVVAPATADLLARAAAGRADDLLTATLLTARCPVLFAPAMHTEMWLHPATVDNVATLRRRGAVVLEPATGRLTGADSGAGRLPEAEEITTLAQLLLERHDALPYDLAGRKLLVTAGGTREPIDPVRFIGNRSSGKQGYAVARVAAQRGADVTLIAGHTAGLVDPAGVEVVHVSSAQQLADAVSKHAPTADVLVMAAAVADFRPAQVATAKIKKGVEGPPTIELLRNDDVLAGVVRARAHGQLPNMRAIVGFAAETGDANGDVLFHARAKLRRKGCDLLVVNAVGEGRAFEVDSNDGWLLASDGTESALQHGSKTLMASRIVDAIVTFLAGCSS
UniProt I6X8D2, whole entry: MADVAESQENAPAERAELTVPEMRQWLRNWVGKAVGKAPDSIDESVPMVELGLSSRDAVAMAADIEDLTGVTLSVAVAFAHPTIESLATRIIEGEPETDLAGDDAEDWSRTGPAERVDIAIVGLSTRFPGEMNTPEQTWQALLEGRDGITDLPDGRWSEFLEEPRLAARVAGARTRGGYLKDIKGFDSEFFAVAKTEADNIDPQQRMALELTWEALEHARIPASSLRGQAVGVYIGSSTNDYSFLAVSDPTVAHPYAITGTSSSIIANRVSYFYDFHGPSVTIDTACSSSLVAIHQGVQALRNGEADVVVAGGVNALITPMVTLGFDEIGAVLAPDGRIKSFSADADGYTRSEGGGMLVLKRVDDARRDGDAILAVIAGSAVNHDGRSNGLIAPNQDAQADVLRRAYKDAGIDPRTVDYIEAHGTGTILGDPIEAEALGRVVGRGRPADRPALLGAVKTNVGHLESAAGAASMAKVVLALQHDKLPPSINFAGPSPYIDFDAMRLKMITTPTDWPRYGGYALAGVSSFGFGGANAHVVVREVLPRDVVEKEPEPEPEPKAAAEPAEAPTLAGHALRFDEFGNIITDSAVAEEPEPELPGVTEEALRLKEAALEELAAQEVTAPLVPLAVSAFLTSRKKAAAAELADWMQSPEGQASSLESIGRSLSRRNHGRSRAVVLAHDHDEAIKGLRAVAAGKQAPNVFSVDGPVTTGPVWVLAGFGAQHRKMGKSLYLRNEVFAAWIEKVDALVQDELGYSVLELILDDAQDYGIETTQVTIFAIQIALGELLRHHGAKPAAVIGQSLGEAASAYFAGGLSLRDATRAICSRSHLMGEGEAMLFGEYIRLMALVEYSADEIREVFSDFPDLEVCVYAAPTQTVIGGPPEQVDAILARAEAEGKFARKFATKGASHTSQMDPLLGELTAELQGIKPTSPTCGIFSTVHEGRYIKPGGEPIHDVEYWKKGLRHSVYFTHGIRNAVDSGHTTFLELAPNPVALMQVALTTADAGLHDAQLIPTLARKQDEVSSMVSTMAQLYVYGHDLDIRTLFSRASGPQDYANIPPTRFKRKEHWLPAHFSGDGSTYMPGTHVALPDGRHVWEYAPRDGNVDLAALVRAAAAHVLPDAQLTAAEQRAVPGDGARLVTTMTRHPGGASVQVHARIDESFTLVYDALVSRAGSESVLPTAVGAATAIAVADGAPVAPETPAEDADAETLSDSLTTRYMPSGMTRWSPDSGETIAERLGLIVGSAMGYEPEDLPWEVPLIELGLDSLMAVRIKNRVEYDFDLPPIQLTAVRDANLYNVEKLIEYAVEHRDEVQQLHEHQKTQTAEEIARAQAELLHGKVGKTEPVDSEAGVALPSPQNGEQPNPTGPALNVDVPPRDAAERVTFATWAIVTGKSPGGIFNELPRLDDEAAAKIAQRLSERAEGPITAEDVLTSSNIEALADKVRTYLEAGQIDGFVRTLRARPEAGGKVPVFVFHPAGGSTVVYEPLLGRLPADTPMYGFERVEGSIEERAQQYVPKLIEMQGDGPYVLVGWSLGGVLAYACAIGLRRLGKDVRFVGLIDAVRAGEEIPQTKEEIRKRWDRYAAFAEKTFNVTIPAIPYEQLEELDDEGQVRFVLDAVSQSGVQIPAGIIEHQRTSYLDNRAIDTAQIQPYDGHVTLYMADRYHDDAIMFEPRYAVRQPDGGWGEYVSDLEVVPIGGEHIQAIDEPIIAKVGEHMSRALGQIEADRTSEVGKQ

Values are the deposited “Percent Effect”, in %. The controls that fix the scale are not given in the record; negative values are as filed. The compounds are a random part of those screened. A dash means the value is not listed here; it may have been measured.

MtTrpRS: 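Enzyme assay of tryptophanyl-tRNA synthetase; the read-out is not stated. Target: Tryptophan-tRNA ligase, Mycobacterium tuberculosis (UniProt P9WFT3). Tested at 10 µM. Higher most likely means stronger inhibition; the record gives no direction and few retests gave an IC50. Of about 65,000 compounds tested this way, about 64 (0.098%) reached 50% or more in at least one test.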
TcHisRS: 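Enzyme assay of histidyl-tRNA synthetase; the read-out is not stated. Target: Histidine-tRNA ligase, Trypanosoma cruzi CL Brener (UniProt Q4DA54). Compounds at 30 µM. Direction is inferred from retests: higher values go with stronger inhibition. Size under these conditions: about 69,000 compounds, about 31 of them at 50% or above in at least one test.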
PfKRS1: 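Lysine-tRNA ligase, Plasmodium falciparum 3D7 (UniProt Q8IDJ8). Enzyme assay of the cytosolic lysyl-tRNA synthetase in 384-well plates, read by luminescence. Tested at 30 µM. Higher reads as stronger inhibition, judged from the few compounds that gave an IC50. Size under these conditions: about 69,000 compounds, about 49 of them at 50% or above in at least one test.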
CoaBC: 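Enzyme assay of CoaBC with a phosphate dye (Biomol Green) read at 650 nm. Target: Coenzyme A biosynthesis protein CoaBC, Mycobacterium tuberculosis (UniProt P9WNZ1). Concentration: 30 µM. Higher reads as stronger inhibition, judged from the few compounds that gave an IC50. Most strong results did not repeat in a second test. Size under these conditions: about 67,000 compounds, about 40 of them at 50% or above in at least one test.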
Pks13 thioesterase: 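Enzyme assay of the thioesterase domain of polyketide synthase 13; the read-out is not stated. Target: Polyketide synthase Pks13, Mycobacterium tuberculosis (UniProt I6X8D2). Concentration: 30 µM. The record gives no direction; the compounds picked for IC50 retests had high values, so higher reads as stronger inhibition. About 67,000 compounds were tested under these conditions; 0.46% (about 300) showed 50% or more at least once.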
Leishmania in macrophages: 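Cell assay of Leishmania donovani living inside macrophages; the read-out is not stated. Concentration: 30 µM. Direction is inferred from retests: higher values go with stronger inhibition. Of about 69,000 compounds tested this way, about 1,000 (1.5%) reached 50% or more in at least one test.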

structure,MtTrpRS,TcHisRS,PfKRS1,CoaBC,Pks13 thioesterase,Leishmania in macrophages
CN(C)CCn1ccnc1C1CCN(C(=O)CCc2cccnc2)CC1,1.72,6.122,0.2688,-1.373,-10.67,-15.94
CN(C)S(=O)(=O)CCCN1CCc2c(ncn2C2CC2)C1,10.75,1.754,8.213,10.68,-10.24,-37.52
O=C(O)C(F)(F)F.[H][C@]12CCC(=O)N(Cc3ccncc3)[C@@]1([H])CCN2C(=O)Cc1ccccc1,-,-,-,-,-,33.52
CC(NC(=O)Nc1ccccc1CN1CCOCC1)c1nccs1 (configuration not stated),-2.199,3.488,0.4783,0.8584,-36.1,29.33
CC(=O)N1CCN(C)CC(COCc2ccccc2)C1 (configuration not stated),1.087,1.622,1.653,-11.94,-31.59,1.954
Cn1cc(CC2CCN(C(=O)NCc3cn4ccsc4n3)C2)cn1 (configuration not stated),14.94,2.174,0.9402,4.453,-17.97,14.63
Cc1cc(N2CCCN(C(=O)Cc3cccnc3)CC2)ccn1,1.956,1.961,1.237,-1.22,-2.972,22.74
FC1(F)CCN(Cc2ccccn2)CC12CCN(c1cccnc1)C2 (configuration not stated),9.329,1.657,-5.391,7.969,-22.84,-
Cc1noc(C)c1CN1CCc2ncnc(-c3cnn(C)c3)c2CC1.O=C(O)C(F)(F)F,-,-,-,-,-,38.5
Cc1cnn(CC2CN(CC(=O)Nc3nnc(C)s3)CCO2)c1 (configuration not stated),0.9434,1.901,5.227,-3.989,-8.834,8.465
OCC(O)CN(CCN1CCOCC1)Cc1ccco1 (configuration not stated),-6.891,3.483,2.608,-6.173,-10.29,-0.6389
COc1ccc(N(CCC(N)=O)C(=O)CSc2ccc(F)c(F)c2)cc1,1.958,0,3.862,0.7335,-15.58,18.82
Cn1ccnc1CNC(=O)c1cnc(C2CCNCC2)cn1,13.85,4.545,0.07076,4.686,-19.88,-
COCC[C@]1(O)CCN(C(=O)CCn2c(C)cccc2=O)C[C@H]1C,9.206,2.128,-2.62,-5.533,-20.29,6.258
CN(C)CC(=O)N1CCCC2(CCC(=O)N(CCc3c[nH]cn3)C2)C1 (configuration not stated),-2.403,0.8368,1.335,7.273,-28.19,-6.955
O=C(Nc1cccnc1)[C@H]1C[C@H]2OCC[C@H]2N(CC2CC2)C1,-1.569,5.785,-2.531,6.723,-15.1,-
COc1ccc(CCC2CCCCN2)cc1.Cl (configuration not stated),-,-,-,-,-,25.69
Cc1ccccc1CN(CC(=O)O)C(=O)COCC1CC1,-1.09,0.8403,3.68,0,-11.35,6.276
[H][C@@]12CS(=O)(=O)C[C@]1([H])N(C(=O)c1cc(C(C)C)no1)CCN2CC=C(C)C,-,-,-,-,-,2.835
CN1C(=O)CCN(C(=O)C2CC=CC2)c2ccccc21,-1.72,1.571,1.348,4.497,-40.46,12.54
O=C1[C@H]2CN(Cc3ccccc3)C[C@H]2CN1CCN1CCCC1,-4.07,3.883,5.886,0.9009,-20.8,-
Cc1cc(CN2CCN(C(=O)NCc3ccoc3)CC2)no1,-3.894,1.153,-1.392,-2.045,-5.572,-15.82
O=C(O)C(F)(F)F.c1nc2c(c(NC3CCC3)n1)CCNCC2,-,-,-,-,-,5.086
COc1cc(CNCCC(N)=O)c2c(c1)CC(C)O2 (configuration not stated),9.436,0,3.177,5.128,3.319,9.594
COc1cccc(Nc2nc(N3CCCC3)nc3c2CNCC3)c1.Cl,-,-,-,-,-,98.87
CC(C)CCN1C2(CCN(Cc3nccs3)C2)c2ccccc2S1(=O)=O (configuration not stated),1.251,4.902,-2.217,4.25,-,-
CCOCCC(=O)N1CC(=O)Nc2cc(Br)ccc21,6.017,0,1.736,9.163,-13.02,-5.347
Cc1sc(NC(=O)CCC(=O)O)c(C(N)=O)c1-c1ccc(Cl)cc1Cl,2.576,0,3.187,1.392,8.388,-3.877
O=C(O)C(F)(F)F.[H][C@@]12COC[C@]1([H])[C@H](OCc1csc(C)n1)CN2Cc1ccc(C)s1,-,-,-,-,-,-4.598

For reference, 3 entries once more:

structure,MtTrpRS,TcHisRS,PfKRS1,CoaBC,Pks13 thioesterase,Leishmania in macrophages
COc1ccc(CCC2CCCCN2)cc1.Cl (configuration not stated),-,-,-,-,-,25.69
COc1cc(CNCCC(N)=O)c2c(c1)CC(C)O2 (configuration not stated),9.436,0,3.177,5.128,3.319,9.594
Cc1cnn(CC2CN(CC(=O)Nc3nnc(C)s3)CCO2)c1 (configuration not stated),0.9434,1.901,5.227,-3.989,-8.834,8.465

From ChEMBL document CHEMBL3988442, “University of Dundee, Small-Polar-MMV Screening Library” (2021).